From patent US20060111418A1, “Blood-brain barrier disruption inhibitor” (Mitsubishi Pharma Corporation, priority 2003, published 2006)
At least one structure is not confirmed: it was looked up by name or label, or the drawing left a doubt.

Tested on: experimental autoimmune encephalomyelitis (EAE) model rats
Assay: EAE model rats: limb neuroparalysis score (Paul's clinical score)
Assay type: in vivo, rat
Conditions: edaravone 3 mg/kg/day i.p., dexamethasone 1 mg/kg/day i.p., n=3, FIG. 8
Protocol: Experimental autoimmune encephalomyelitis (EAE) model rats were prepared by known methods (Int. J. Immunopharmacol, 7: 497-503, 1995). First, an encephalitogenic emulsion consisting of equivalent amounts of Guinea pig spinal cord, sterile phosphate buffered saline (PBS), and Freund's incomplete adjuvant was prepared. Thereafter, 10 mg/ml Mycobacterium tuberculosis H37Ra (Difco Laboratories) was added to the emulsion. Rats (inbred male Lewis rats; body weight: 200 to 250 g) were inoculated with 0.1 ml each of the thus obtained emulsion by subcutaneous administration of the emulsion to both plantae of the hind legs thereof, so as to prepare EAE model rats.
Moreover, limb neuroparalysis scores were evaluated in a group of EAE model rats to which no agents were administered (control), a group of EAE model rats to which dexamethasone was administered (1 mg/kg/day, intraperitoneal administration), and a group of EAE model rats to which edaravone was administered (3 mg/kg/day, intraperitoneal administration). The limb neuroparalysis scores were evaluated in accordance with the following standards.

For `C[C@@H]1C[C@H]2[C@@H]3CCC4=CC(=O)C=C[C@]4(C)[C@@]3(F)[C@@H](O)C[C@]2(C)[C@@]1(O)C(=O)CO` [dexamethasone], the limb neuroparalysis scores was “improved”.
